How the values were obtained:
[1] = Color-development performance test of heat sensitive record sheets; conditions: heat sensitive record sheet with bisphenol A, heated at 150°C for 5 seconds; for Developed color density: Macbeth reflex densitometer RD-514
Procedure: (§1) To 2.0 g of Compound (B) prepared in Example 1, 20 g of water and 20 g of an aqueous solution containing 10% by weight of polyvinyl alcohol were added. The mixture was dispersed and mixed in a ball mill at room temperature for 24 hours to obtain a slurry wherein the particle size of the compound was about 3 µm.
(§2) On the other hand, 7 g of bisphenol A was added to 10 g of water and 40 g of an aqueous solution containing 10% by weight of polyvinyl alcohol. The mixture was dispersed and mixed in a ball mill at room temperature for 24 hours to obtain a slurry.
(§3) Both slurries were mixed, and the mixture was uniformly dispersed and mixed at room temperature for 1 hour, whereby a slurry mixture was prepared. This slurry mixture was coated on one surface of a normal paper of 50 g/m^2 by means of a wire bar coater (wound wire: • 0.35 mm in diameter) in an amount of the coated compound being 1.5 g/m^2 of the paper. The coated paper was dried in air at room temperature, whereby a heat sensitive record sheet having a substantially colorless heat sensitive layer was obtained. This heat sensitive record sheet will be referred to as No. 1.
(§4) In the same manner, heat sensitive record sheets No. 2 and No. 3 were prepared by using Compounds (C) and (D).
(§5) Further, for the purpose of comparison, heat sensitive record sheets No. 4 to No. 8 were prepared in the same manner as above by using known 2-anilino-3-methyl-6-diethylamino-fluoran [Compound (E)], 2-anilino-3-methyl-6-N-methyl-N-cyclohexylamino-fluoran [Compound (F)], 2-benzylamino-6-diethylamino-fluoran [Compound (A-1)], 2-(2-chlorobenzylamino)-6-diethylamino-fluoran [Compound (A-2)] and 2-(4-chlorobenzylamino)-6-diethylamino-fluoran [Compound(A-3)].
Heat sensitive record sheets No. 1 to No. 3 and comparative sheets No. 4 to No. 8 were heated at a temperature of 150°C for 5 seconds, whereby the developed color hue, the developed color density and the initial color density were measured by means of Macbeth reflex densitometer RD-514 model with a visualfilter (Wratten # 106).

[2] = Color-development characteristic test of heat sensitive record sheets; conditions: heated from 70 to 160°C for 5 seconds under a load of 100 g/cm^2; calculated from temperature vs color density
Procedure: as §1, §2, §3, §4, §5
Heat sensitive record sheets No. 1 to No. 3 and comparative sheets No. 4 to No. 8 were heated for color-development within the temparature range of from 70 to 160°C for 5 seconds, whereby the color density at each temperature was measured in the same manner as in the above test (1), and the color-development initiation temperature and the rising for the color-development were calculated from the relationship between the temperature and the color density.

Structure (SMILES) | Developed color hue [1] | Developed color density [1] | Color-development initiation temperature(°C) [2]
CCN(CC)c1ccc2c(c1)Oc1ccc(NCc3ccc(Cl)cc3)cc1C21OC(=O)c2ccccc21 (stereo not drawn) [(A-3), 2-(4-chlorobenzylamino)-6-diethylamino fluoran] | Greenish black | 1.12 | 95 °C
CCN(CC)c1ccc2c(c1)Oc1ccc(NCc3ccccc3)cc1C21OC(=O)c2ccccc21 (stereo not drawn) [Compound (A-1), 2-benzylamino-6-diethylamino fluoran] | Greenish black | 1.12 | 96 °C
CCN(CC)c1ccc2c(c1)Oc1ccc(NCc3ccccc3Cl)cc1C21OC(=O)c2ccccc21 (stereo not drawn) [Compound (A-2), 2-(2-chlorobenzylamino)-6-diethylamino fluoran] | Greenish black | 1.13 | 96 °C
CCCCN(CCCC)c1ccc2c(c1)Oc1ccc(NCc3ccccc3Cl)cc1C21OC(=O)c2ccccc21 (stereo not drawn) [Compound (B), 2-(2-chlorobenzylamino)-6-di-n-butylamino-fluoran] | Greenish black | 1.15 | 92 °C
CCCCN(CCCC)c1ccc2c(c1)Oc1ccc(NCc3cccc(Cl)c3)cc1C21OC(=O)c2ccccc21 (stereo not drawn) [Compound (C), 2-(3-chlorobenzylamino)-6-di-n-butylamino-fluoran] | Greenish black | 1.16 | 91 °C
CCCCN(CCCC)c1ccc2c(c1)Oc1ccc(NCc3ccc(Cl)cc3)cc1C21OC(=O)c2ccccc21 (stereo not drawn) [Compound (D), 2-(4-chlorobenzylamino)-6-di-n-butylamino-fluoran] | Greenish black | 1.18 | 88 °C
CCN(CC)c1ccc2c(c1)Oc1cc(C)c(Nc3ccccc3)cc1C21OC(=O)c2ccccc21 (stereo not drawn) [Compound (E), 2-anilino-3-methyl-6-diethylamino-fluoran] | Reddish black | 1.12 | 85 °C
Cc1cc2c(cc1Nc1ccccc1)C1(OC(=O)c3ccccc31)c1ccc(N(C)C3CCCCC3)cc1O2 (stereo not drawn) [Compound (F), 2-anilino-3-methyl-6-N-methyl-N-cyclohexylamino-fluoran] | Reddish black | 1.10 | 92 °C

— patent publication EP0115821A1, “Fluoran compounds” (HODOGAYA CHEMICAL CO., LTD., priority 1983, dated 1984)
